The text below walks through data of PMC5854669, “Zinc knuckle of TAF1 is a DNA binding module critical for TFIID promoter occupancy”.

Protein sequences, listed by entry. Tags and fused reporters are not part of them. Lines headed by an entry give the natural chain unless they say otherwise; changes in a name come on top.
UniProt O00268: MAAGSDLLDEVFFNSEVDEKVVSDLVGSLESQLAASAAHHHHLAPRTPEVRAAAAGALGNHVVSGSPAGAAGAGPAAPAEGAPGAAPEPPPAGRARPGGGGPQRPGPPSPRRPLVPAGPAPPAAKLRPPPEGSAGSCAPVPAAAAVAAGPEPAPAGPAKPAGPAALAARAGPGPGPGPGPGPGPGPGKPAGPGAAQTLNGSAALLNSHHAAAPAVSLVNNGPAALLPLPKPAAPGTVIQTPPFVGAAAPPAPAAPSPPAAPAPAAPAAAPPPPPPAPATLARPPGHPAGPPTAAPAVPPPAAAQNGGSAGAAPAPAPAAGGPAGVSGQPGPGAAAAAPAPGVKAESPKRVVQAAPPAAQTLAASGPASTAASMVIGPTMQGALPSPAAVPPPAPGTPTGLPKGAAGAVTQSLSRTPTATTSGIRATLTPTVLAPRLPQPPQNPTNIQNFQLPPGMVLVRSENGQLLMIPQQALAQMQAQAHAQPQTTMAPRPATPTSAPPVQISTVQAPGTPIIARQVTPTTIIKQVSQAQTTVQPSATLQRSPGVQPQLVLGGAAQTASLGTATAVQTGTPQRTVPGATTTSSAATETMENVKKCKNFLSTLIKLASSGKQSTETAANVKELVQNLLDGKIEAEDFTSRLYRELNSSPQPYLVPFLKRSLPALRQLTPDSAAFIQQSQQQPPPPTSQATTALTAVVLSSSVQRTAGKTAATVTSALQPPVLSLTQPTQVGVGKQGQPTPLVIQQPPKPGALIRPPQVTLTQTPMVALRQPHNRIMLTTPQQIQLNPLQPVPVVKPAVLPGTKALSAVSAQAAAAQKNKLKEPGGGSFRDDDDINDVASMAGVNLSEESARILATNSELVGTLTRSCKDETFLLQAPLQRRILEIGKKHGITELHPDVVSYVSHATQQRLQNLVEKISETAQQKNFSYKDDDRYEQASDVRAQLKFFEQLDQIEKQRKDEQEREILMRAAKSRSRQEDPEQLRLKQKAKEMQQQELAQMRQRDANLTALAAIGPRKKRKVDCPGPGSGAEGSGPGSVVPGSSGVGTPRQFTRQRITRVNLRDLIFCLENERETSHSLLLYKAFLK
UniProt P21675: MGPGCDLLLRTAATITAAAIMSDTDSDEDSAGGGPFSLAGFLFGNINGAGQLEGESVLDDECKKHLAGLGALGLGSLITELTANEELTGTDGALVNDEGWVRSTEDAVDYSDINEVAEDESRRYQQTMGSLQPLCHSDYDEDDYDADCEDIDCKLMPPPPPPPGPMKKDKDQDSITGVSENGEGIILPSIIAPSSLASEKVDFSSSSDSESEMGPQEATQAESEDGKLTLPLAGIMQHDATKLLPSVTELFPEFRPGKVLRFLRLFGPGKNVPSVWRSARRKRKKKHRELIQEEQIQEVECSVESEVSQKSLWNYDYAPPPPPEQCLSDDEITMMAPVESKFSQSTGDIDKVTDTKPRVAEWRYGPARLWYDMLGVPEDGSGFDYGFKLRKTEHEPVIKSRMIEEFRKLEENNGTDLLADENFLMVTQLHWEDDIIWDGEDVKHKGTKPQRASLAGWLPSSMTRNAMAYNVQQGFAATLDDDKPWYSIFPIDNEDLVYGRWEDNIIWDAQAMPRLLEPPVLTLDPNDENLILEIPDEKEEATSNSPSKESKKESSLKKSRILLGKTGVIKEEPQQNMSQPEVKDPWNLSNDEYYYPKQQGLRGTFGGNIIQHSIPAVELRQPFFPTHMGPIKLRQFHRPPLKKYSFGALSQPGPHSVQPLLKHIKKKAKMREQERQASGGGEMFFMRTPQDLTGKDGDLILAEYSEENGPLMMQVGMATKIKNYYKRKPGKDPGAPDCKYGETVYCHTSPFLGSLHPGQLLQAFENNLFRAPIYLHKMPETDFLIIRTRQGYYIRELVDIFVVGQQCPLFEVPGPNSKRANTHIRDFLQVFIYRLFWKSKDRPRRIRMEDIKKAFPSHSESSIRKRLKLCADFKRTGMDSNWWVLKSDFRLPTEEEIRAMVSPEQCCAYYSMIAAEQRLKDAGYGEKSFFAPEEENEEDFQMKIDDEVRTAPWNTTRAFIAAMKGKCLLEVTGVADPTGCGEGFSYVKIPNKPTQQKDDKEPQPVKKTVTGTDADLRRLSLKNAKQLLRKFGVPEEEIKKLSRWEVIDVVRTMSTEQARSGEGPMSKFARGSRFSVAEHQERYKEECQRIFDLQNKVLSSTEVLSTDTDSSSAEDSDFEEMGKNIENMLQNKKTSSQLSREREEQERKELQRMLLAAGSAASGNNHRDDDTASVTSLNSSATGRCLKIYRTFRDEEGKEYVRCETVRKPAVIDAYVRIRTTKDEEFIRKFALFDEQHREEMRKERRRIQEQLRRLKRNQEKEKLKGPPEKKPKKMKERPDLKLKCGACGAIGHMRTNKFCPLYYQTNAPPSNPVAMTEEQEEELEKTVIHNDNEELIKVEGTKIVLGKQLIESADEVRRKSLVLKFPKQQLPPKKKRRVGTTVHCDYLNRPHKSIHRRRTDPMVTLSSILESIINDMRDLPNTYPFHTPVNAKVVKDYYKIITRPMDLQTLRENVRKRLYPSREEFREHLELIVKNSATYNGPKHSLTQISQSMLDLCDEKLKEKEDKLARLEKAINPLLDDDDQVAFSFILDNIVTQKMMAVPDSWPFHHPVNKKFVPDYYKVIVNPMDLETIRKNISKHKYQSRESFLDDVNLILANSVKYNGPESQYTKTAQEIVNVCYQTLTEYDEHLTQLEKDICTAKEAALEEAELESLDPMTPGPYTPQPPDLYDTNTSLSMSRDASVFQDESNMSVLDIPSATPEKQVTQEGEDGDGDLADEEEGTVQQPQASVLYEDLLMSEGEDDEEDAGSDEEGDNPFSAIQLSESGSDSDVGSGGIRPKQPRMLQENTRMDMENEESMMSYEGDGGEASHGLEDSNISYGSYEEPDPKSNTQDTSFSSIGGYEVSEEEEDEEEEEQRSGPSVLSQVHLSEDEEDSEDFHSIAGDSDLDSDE

Results are given in words; binding and its absence hold for the method and conditions named. In cells and extracts the contact can be indirect. A result given as binding can be weak or reduced; the word gives no strength.

The assay addresses TAF4 subunit of TFIID (human (endogenous in HEK293)) (UniProt O00268). The experiment in a line: co-IP; HEK293 nuclear extract (buffer C, 420 mM NaCl) incubated with anti-TAF4 mAb 3A6 overnight at 4 °C, protein A-Sepharose, washed 5 times with buffer C; immunoblot with anti-HA and antibodies against TBP, TAF4 and TAF5. Background: A western blot detects proteins with antibodies after separation by electrophoresis.

Regarding “HA-TAF1 winged-helix mutant (WH3A) (from UniProt P21675)”, the binding entry is given as “binds”.
